Results: PubChem BioAssay AID720504 (National Center for Advancing Translational Sciences (NCATS), 2013)
Values joined by “and” are separate entries in the source; they are usually repeats but may differ in a detail not shown here. Equal values may be shown once. The whole screen tested about 360,000 compounds, of which about 10,000 (2.8%) were called active. Inconclusive means that the source gave no clear call. Such entries were picked first, then a sample of the others. Calls come from the whole dose curve; as a rule, active = well fitted inhibition curve with a large enough effect; inconclusive = small, poorly fitted or top-dose-only effect; inactive = flat fitted curve, though single readings scatter. Potencies of inconclusive entries are doubtful fits and often do not repeat.

Sequences of proteins named here, by UniProt entry; tags and fusion partners are left off.
UniProt P53350, whole entry, looked up: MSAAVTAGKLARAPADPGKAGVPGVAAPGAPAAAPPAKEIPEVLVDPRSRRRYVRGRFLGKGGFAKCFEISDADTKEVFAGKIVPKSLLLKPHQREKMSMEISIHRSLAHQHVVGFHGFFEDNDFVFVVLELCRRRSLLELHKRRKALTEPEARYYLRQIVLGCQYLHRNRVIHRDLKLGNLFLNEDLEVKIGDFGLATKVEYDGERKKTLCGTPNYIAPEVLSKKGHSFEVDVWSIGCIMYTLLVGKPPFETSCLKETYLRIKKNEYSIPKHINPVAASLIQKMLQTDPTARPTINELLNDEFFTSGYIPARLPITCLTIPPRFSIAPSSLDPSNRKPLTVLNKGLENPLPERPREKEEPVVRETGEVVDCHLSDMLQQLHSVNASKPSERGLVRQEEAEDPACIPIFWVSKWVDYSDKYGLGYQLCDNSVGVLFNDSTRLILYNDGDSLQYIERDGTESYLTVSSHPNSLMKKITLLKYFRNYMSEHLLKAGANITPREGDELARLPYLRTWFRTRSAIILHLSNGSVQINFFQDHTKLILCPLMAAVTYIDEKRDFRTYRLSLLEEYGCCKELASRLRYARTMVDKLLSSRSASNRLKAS

Molecular target: Serine/threonine-protein kinase PLK1 (Homo sapiens) (UniProt P53350)
Experiment: qHTS for Inhibitors of PLK1-PDB (polo-like kinase 1 - polo-box domain): Primary Screen; note: nearly all actives have a fitted effect of over 65% in size; for max response, negative = inhibition: series mostly up to about 57 µM
Settings: Plk1 PBD binding of FITC phosphopeptide, fluorescence polarization
% is set by controls: 0 for no effect and ±100 for the full control effect; potency is the fitted concentration of half-maximal effect.

Row | Compound | max response, negative = inhibition | Potency
1 | CCOC(=O)c1ccc2c(c1)n(CC)c(C)[n+]2CC | inactive: 8.39% | 
2 | Cc1cccc(-c2oc3ccc(-c4ccc5c(c4)OCO5)cc3c2C(=O)OCc2ccc(O)cc2)c1 |  | inconclusive: 42.3 µM [inhibitor, partial curve]
3 | O=C(COc1ccccc1C(=O)c1cnn(-c2ccccc2)c1)Nc1ccccc1 | inactive: 4.09% and inactive: -9.18% | 
4 | O=C(O)CCCNC(=O)Cc1ccccc1 | inactive: -13.7% | 
5 | O=c1cc(O)c(-c2ccc(Cl)cc2)c(Cl)[nH]1 | inactive: -1.77% | 
6 | O=C(CCN1CCc2ccccc21)c1ccc2c(c1)OCCO2 |  | inconclusive: 23.8 µM [inhibitor, single point]
7 | COc1ccccc1NS(=O)(=O)c1cc(NC(=O)C(C)NC(N)=O)ccc1N1CCCC1 (centres undefined) |  | active: 13.4 µM
8 | CCOc1ccc(C2C(C#N)=C(N)Oc3n[nH]c(C)c32)cc1OC(=O)C1CC1 (centres undefined) |  | inconclusive: 21.2 µM [inhibitor, partial curve]
9 | CCOCCSc1nc2c(c(=O)[nH]c(=O)n2C)n1CCCc1ccccc1 | inactive: -9.35% | 
10 | O=C(CSc1ccc(Br)cc1)NC1CCCCCC1 |  | inconclusive: 21.2 µM [inhibitor, partial curve]
11 | Cc1ccn2c(-c3n[nH]c(=S)n3C)c(C)nc2c1 | inconclusive: -35.4% [inhibitor] | 
12 | Cc1cc(S(=O)(=O)NCC(=O)O)ccc1F |  | active: 21.2 µM
13 | O=c1[nH]c2c(n(C3CCCCC3)c1=O)CCC2 |  | inconclusive: 26.7 µM [inhibitor, single point]
14 | CN(C)c1cc[n+](/C(C(=S)Nc2ccc(SC(F)F)cc2)=C(/[O-])c2ccccc2)cc1 | inactive: -25% | 
15 | CN(C(=O)CSC1=Nc2ccccc2C2=NC(c3ccccc3)C(=O)N12)C1CCCCC1 (centres undefined) |  | inconclusive: 26.7 µM [inhibitor, single point]
16 | Cc1ccc(NC(=O)c2ccc(CSc3ccccn3)cc2)cc1 |  | inconclusive: 18.9 µM [inhibitor, partial curve]
17 | COc1ccc(CNC(=O)c2cccc(S(=O)(=O)N3CCN(C)CC3)c2)cc1 |  | inconclusive: 26.7 µM [inhibitor, partial curve]
18 | O=C(CCS(=O)(=O)c1ccc(Br)cc1)NC1CCCCCC1 |  | inconclusive: 18.9 µM [inhibitor, partial curve]
19 | CCn1c(=O)c([N+](=O)[O-])c(NCCN(C)C)c2ccccc21 | inactive: -1.84% | 
20 | Nc1ccccc1SCc1csc(-c2ccc(Cl)cc2)n1 |  | active: 9.47 µM
21 | N=C1S/C(=C\c2ccc(-c3cccc(Cl)c3)o2)C(=O)N1c1nccs1 |  | inconclusive: 10.6 µM [inhibitor, partial curve]
22 | CN(/N=C/c1cc(Cl)cc(Cl)c1O)C(=S)NC(C)(C)C |  | inconclusive: 26.7 µM [inhibitor, single point]
23 | Oc1ccc2ccccc2c1CN1CCCC1 |  | inconclusive: 29.9 µM [inhibitor, single point]
24 | CC(C)C[C@@H]1COc2cccc(N3CCC[C@H]3CO)c2S(=O)(=O)N1 | inactive: -15.2% | 
25 | O=Cc1ccc(Sc2nnc(-c3ccccc3)o2)c([N+](=O)[O-])c1 |  | inconclusive: 26.7 µM [inhibitor, partial curve]

Part of the list above, as tab-separated lines.
Row	Compound	max response, negative = inhibition	Potency
1	CCOC(=O)c1ccc2c(c1)n(CC)c(C)[n+]2CC	inactive: 8.39%	
2	Cc1cccc(-c2oc3ccc(-c4ccc5c(c4)OCO5)cc3c2C(=O)OCc2ccc(O)cc2)c1		inconclusive: 42.3 µM [inhibitor, partial curve]
3	O=C(COc1ccccc1C(=O)c1cnn(-c2ccccc2)c1)Nc1ccccc1	inactive: 4.09% and inactive: -9.18%	
4	O=C(O)CCCNC(=O)Cc1ccccc1	inactive: -13.7%	
5	O=c1cc(O)c(-c2ccc(Cl)cc2)c(Cl)[nH]1	inactive: -1.77%	
6	O=C(CCN1CCc2ccccc21)c1ccc2c(c1)OCCO2		inconclusive: 23.8 µM [inhibitor, single point]
7	COc1ccccc1NS(=O)(=O)c1cc(NC(=O)C(C)NC(N)=O)ccc1N1CCCC1 (centres undefined)		active: 13.4 µM
8	CCOc1ccc(C2C(C#N)=C(N)Oc3n[nH]c(C)c32)cc1OC(=O)C1CC1 (centres undefined)		inconclusive: 21.2 µM [inhibitor, partial curve]
9	CCOCCSc1nc2c(c(=O)[nH]c(=O)n2C)n1CCCc1ccccc1	inactive: -9.35%	
10	O=C(CSc1ccc(Br)cc1)NC1CCCCCC1		inconclusive: 21.2 µM [inhibitor, partial curve]
11	Cc1ccn2c(-c3n[nH]c(=S)n3C)c(C)nc2c1	inconclusive: -35.4% [inhibitor]	
12	Cc1cc(S(=O)(=O)NCC(=O)O)ccc1F		active: 21.2 µM
13	O=c1[nH]c2c(n(C3CCCCC3)c1=O)CCC2		inconclusive: 26.7 µM [inhibitor, single point]
14	CN(C)c1cc[n+](/C(C(=S)Nc2ccc(SC(F)F)cc2)=C(/[O-])c2ccccc2)cc1	inactive: -25%	
15	CN(C(=O)CSC1=Nc2ccccc2C2=NC(c3ccccc3)C(=O)N12)C1CCCCC1 (centres undefined)		inconclusive: 26.7 µM [inhibitor, single point]
16	Cc1ccc(NC(=O)c2ccc(CSc3ccccn3)cc2)cc1		inconclusive: 18.9 µM [inhibitor, partial curve]
17	COc1ccc(CNC(=O)c2cccc(S(=O)(=O)N3CCN(C)CC3)c2)cc1		inconclusive: 26.7 µM [inhibitor, partial curve]
18	O=C(CCS(=O)(=O)c1ccc(Br)cc1)NC1CCCCCC1		inconclusive: 18.9 µM [inhibitor, partial curve]
19	CCn1c(=O)c([N+](=O)[O-])c(NCCN(C)C)c2ccccc21	inactive: -1.84%	
20	Nc1ccccc1SCc1csc(-c2ccc(Cl)cc2)n1		active: 9.47 µM
21	N=C1S/C(=C\c2ccc(-c3cccc(Cl)c3)o2)C(=O)N1c1nccs1		inconclusive: 10.6 µM [inhibitor, partial curve]
22	CN(/N=C/c1cc(Cl)cc(Cl)c1O)C(=S)NC(C)(C)C		inconclusive: 26.7 µM [inhibitor, single point]
23	Oc1ccc2ccccc2c1CN1CCCC1		inconclusive: 29.9 µM [inhibitor, single point]

Copied from above: compounds 23–24
Row | Compound | max response, negative = inhibition | Potency
23 | Oc1ccc2ccccc2c1CN1CCCC1 |  | inconclusive: 29.9 µM [inhibitor, single point]
24 | CC(C)C[C@@H]1COc2cccc(N3CCC[C@H]3CO)c2S(=O)(=O)N1 | inactive: -15.2% | 

Next results follow.

Row | Compound | max response, negative = inhibition | Potency
26 | Cc1[nH]c2ccc(C(=O)NC3CCCC3)cc2c1C | inactive: -23.6% | 
27 | C=CCNS(=O)(=O)c1cc(S(=O)(=O)NCC=C)c(OC)cc1OC | inconclusive: -19.6% [inhibitor] | 
28 | COc1cc(C(=O)NC(=S)Nc2ccc(NC(=O)c3ccco3)cc2)cc(OC)c1OC | inactive: -3.24% | 
29 | O=C1/C(=C/c2ccco2)Oc2c1ccc(O)c2CN1CCCCC1 |  | inconclusive: 13.4 µM [inhibitor, partial curve]
30 | COc1ccc(N2C(=O)c3ccc(C(=O)OC(C)C)cc3C2=O)cc1 |  | active: 2.67 µM
31 | COc1ccccc1NS(=O)(=O)c1ccc2[nH]c(=S)oc2c1 |  | inconclusive: 29.9 µM [inhibitor, partial curve]
32 | CSc1ccccc1NC(=O)C1CC(c2ccccc2O)=NO1 (centres undefined) |  | inconclusive: 11.9 µM [inhibitor, partial curve]
33 | COc1ccc(S(=O)(=O)N2CCc3ccccc32)cc1C(=O)N1CCOCC1 | inactive: 2.68% | 
34 | C/C(=N\NC(=O)c1nnn(-c2nonc2N)c1CN(C)c1ccccc1)c1cccnc1 | inactive: -1.72% | 
35 | COc1ccc(Nc2cccccc2=O)cc1 | inactive: 1.03% | 
36 | CC(C)N=c1scc(-c2cccs2)n1/N=C/c1ccc(O)c(O)c1O |  | inconclusive: 26.7 µM [inhibitor, single point]
37 | O=C(CN1CCN(c2ccc(F)cc2)CC1)Nc1ccccc1[N+](=O)[O-] |  | inconclusive: 23.8 µM [inhibitor, partial curve]
38 | CC(=O)N1CCc2cc(S(=O)(=O)NCCC3=CCCCC3)ccc21 | inactive: -9.53% | 
39 | COc1ccccc1-c1cn[nH]c1-c1ccc(OCc2ccccc2F)cc1O | inactive: 3.17% | 
40 | CCCSC1=C(C#N)C(c2cccs2)CC(=O)N1 (centres undefined) |  | active: 23.8 µM
41 | CC1=C([N+](=O)[O-])C(c2ccc3c(c2)OCO3)N(C)C(=O)N1C (centres undefined) |  | active: 8.44 µM
42 | S=c1[nH]nc(C2CCCCC2)n1/N=C/c1ccc(Br)cc1 |  | inconclusive: 23.8 µM [inhibitor, partial curve]
43 | COc1ccc(N2CCN(c3ncnc4scc(-c5ccccc5)c34)CC2)cc1 | inactive: -1.23% | 
44 | N#CC(C#N)=Cc1cccn1-c1ccc(C(=O)O)cc1 |  | inconclusive: 29.9 µM [inhibitor, single point]
45 | COc1ccc(-c2cc(NC=O)c3ncc(-c4cnn(C)c4)n3c2)cc1 |  | inconclusive: 23.8 µM [inhibitor, single point]
46 | Cc1cc(N2CCN(C)CC2)nc2ccc(NC(=S)NCCC(C)C)cc12 |  | inconclusive: 33.6 µM [inhibitor, partial curve]
47 | O=C(O)CC(c1ccc(Cl)cc1)n1cccc1 (centres undefined) |  | inconclusive: 26.7 µM [inhibitor, single point]
48 | COc1cc(CN2CCN(Cc3cccc(OC)c3OC)CC2)cc(OC)c1 | inactive: -2.15% | 
49 | Clc1ccc2c(SCC3CO3)c3ccccc3nc2c1 (centres undefined) | inactive: -25.6% | 
50 | CC(C)c1ccc(S(=O)(=O)N2CCN(CC(=O)Nc3ccc(Cl)cc3F)CC2)cc1 | inactive: 3.08% | 

Row | Compound | max response, negative = inhibition | Potency
51 | O=C1CC(c2ccc(OCCCCCOc3ccc(C4CC(=O)NC4=O)cc3)cc2)C(=O)N1 (centres undefined) |  | inconclusive: 26.7 µM [inhibitor, single point]
52 | CCOc1nc(SC(C(C)=O)C(=O)Nc2ccccc2)nc(N(C)C)n1 (centres undefined) |  | inconclusive: 29.9 µM [inhibitor, single point]
53 | O=C(COC(=O)Cc1ccccc1F)Nc1cc(S(=O)(=O)N2CCOCC2)ccc1N1CCCC1 |  | inconclusive: 37.7 µM [inhibitor, single point]
54 | COC(=O)C1CCN(C(=O)/C=C/c2ccc3c(c2)OCO3)CC1 |  | inconclusive: 15 µM [inhibitor, partial curve]
55 | O=C(Nc1cccc(-n2cccn2)c1)C1CCCN(Cc2cc3ccccc3[nH]2)C1 (centres undefined) |  | active: 21.2 µM
56 | CCc1c(C)sc(NC(=S)Nc2cccnc2)c1C(=O)OC |  | inconclusive: 26.7 µM [inhibitor, single point]
57 | O=C(O)Cn1c(O)c(C2=c3ccccc3=NC2=O)sc1=O | inactive: -22.6% | 
58 | CCOC(=O)c1c(C)c(C(=O)OCC)n(C)c1C |  | inconclusive: 23.8 µM [inhibitor, single point]
59 | NC(=O)c1ccc2nc(-c3ccccc3)c(-c3ccccc3)nc2c1 | inconclusive: -36.5% [inhibitor] | 
60 | Cc1ccc(Sc2ccc(C(=O)N3CCOCC3)cc2[N+](=O)[O-])cc1 | inactive: 0.0686% | 
61 | O=C(O)C/C(=C\c1cc2c(cc1Br)OCO2)c1nc2ccccc2s1 |  | active: 23.8 µM
62 | COc1cccc(C(c2nnnn2CCc2ccccc2)N2CCN(c3ccccc3)CC2)c1OC (centres undefined) |  | active: 29.9 µM
63 | Cc1ccc(NC(=O)c2c(NC(=O)CCC(=O)O)sc3c2CCCCC3)cc1 |  | inconclusive: 21.2 µM [inhibitor, partial curve]
64 | CN(C)S(=O)(=O)c1ccc(S(=O)(=O)NCCN2CCOCC2)cc1 | inactive: -4.29% | 
65 | Cc1cc(NC(=O)c2ccc(F)c(S(=O)(=O)N3CCCCC3)c2)no1 | inactive: -4.9% | 
66 | COc1nccnc1NS(=O)(=O)c1ccc(NC(=S)NC(=O)/C=C/c2ccc(F)cc2)cc1 | inconclusive: -30.2% [inhibitor] | 
67 | COc1cc(/C=N/n2cnn(Cc3ccccc3Cl)c2=S)cc(OC)c1OC |  | inconclusive: 29.9 µM [inhibitor, partial curve]
68 | O=C1CCC2(CC1)NC(=O)N(c1ccccc1)N2 | inactive: -13% | 
69 | CC1(C)CC2CC(C)(CN2C(=S)Nc2ccccc2)C1 (centres undefined) |  | inconclusive: 29.9 µM [inhibitor, single point]
70 | O=C1Nc2ccccc2/C1=C\C(=O)c1ccccc1 |  | active: 18.9 µM
71 | O=C1C(Cl)=C(N2CCC(C(=O)O)CC2)C(=O)c2ccccc21 |  | inconclusive: 23.8 µM [inhibitor, partial curve]
72 | CCN(CC)CCCN1C=C2C(=O)C(C)(OC(=O)C3CCCC3)C(=O)C=C2C=C1c1ccsc1 (centres undefined) | inactive: -23.4% | 
73 | COC(=O)c1c(C(=O)OC)c(-c2ccc(Cl)cc2)n2c1CS(=O)(=O)C2 |  | active: 4.23 µM
74 | Cc1ccc(CNC(=O)c2cn(C3CCCCC3)c(=O)c3c2c2ccccc2n3C)o1 |  | inconclusive: 21.2 µM [inhibitor, single point]
